Test system: H9 cells
Test: NanoString RNA analysis of H9 cells, F7 versus p38γ shRNA knockdown
Format: cell-based
Conditions: F7 500 nM, 24 h

## Cc1ccc([N+](=O)[O-])cc1S(=O)(=O)N(C)/N=C/c1cnc2ccc(Br)cn12 [Compound F7]
PanCancer Immune panel
  correlation coefficient of gene expression alterations, knockdown of p38γ versus F7 treatment: 0.6
PanCancer Pathway panel
  correlation coefficient of gene expression alterations, knockdown of p38γ versus F7 treatment: 0.7
Two merged panels, FIG. 15A
  correlation coefficient of gene expression alterations, knockdown of p38γ versus F7 treatment: 0.628

— patent US20230190717A1, “P38 GAMMA INHIBITORS AND METHOD OF USE THEREOF” (City of Hope, priority 2017, published 2023)
